Assay results from PubChem BioAssay AID2685 (National Center for Advancing Translational Sciences (NCATS), 2010).
The list shows a part of the results. Shown are side measurements of this screen, not its main read-out; they come without a call. Most of these compounds were active or inconclusive in the main read-out, so they are no random draw. Potencies come from curve fits of mixed quality, noted in brackets.

Assay: qHTS Assay for Lipid Storage Modulators in Drosophila S3 Cells;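 for cell number change: cells counted by Cell Tracker Red CMTPX staining in the red channel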
Settings: BODIPY lipid droplet fluorescence, 18-24 h; for cell number change: measured here: cell count max response, cells fed with added oleic acid
In short: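 Laser-scanning cytometry quantifies lipid droplet accumulation (500–530 nm total intensity; droplet/cell object ratio) in oleic acid-fed (400 uM added) Drosophila S3 cells treated with a concentration series. 20 uM Triacsin C defined 100% inhibition.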

[1] = measured here: cell number channel AC50, cells fed with added oleic acid
[2] = measured here: lipid fluorescence (Fed channel) AC50, cells fed with added oleic acid

`COc1ccc(CN(C)C(=O)CCN(c2ccccc2)S(=O)(=O)c2ccc(C)cc2)c(OC)c1` gave a cell number change of -18.1%.
Compound `CCSc1nnc(N2C(=O)C(O)=C(C(=O)c3ccco3)C2c2cccc(OC)c2)s1` (centres undefined) has a cell number change of -3.54%.
With `CC(=O)Nc1ccc(NC(=O)c2cc(=O)c3cc(C)cc(C)c3o2)cc1` the AC50 [1] was 0.184 µM [rising, partial curve] and the AC50 [2] was 5.17 µM [rising, partial curve].
For `CCC(NC(=O)CCC(=O)N1CCN(S(=O)(=O)c2ccc(C)cc2)CC1)c1ccc(C)cc1` (centres undefined), the cell number change was -2.63% and the AC50 [2] was 29.1 µM [falling, single point].
Compound `C/C(=N\O)C(C)(C)Nc1ccc(Cl)cc1` has a cell number change of 18.1%.
In the case of `CCCNC(=O)c1ccccc1NC(=O)CN(c1ccccc1OCC)S(C)(=O)=O`, the cell number change is reported as 1.56% and the AC50 [2] is reported as 8.2 µM [rising, partial curve].
For `COc1ccc(C2CC2/C(=N/OC(=O)c2cccs2)c2ccccc2)cc1` (centres undefined), the cell number change was 41.1%, the AC50 [1] was 9.2 µM [rising, partial curve] and the AC50 [2] was 6.51 µM [falling, single point].
For `N#CC1=C2N=C(N)c3c(sc4c3CCCCC4)N2C2=C(C(=O)CCC2)C1c1ccccc1` (centres undefined), the cell number change was -37.4%, the AC50 [1] was 23.1 µM [falling, single point] and the AC50 [2] was 18.4 µM [falling, single point].
With `COc1ccc(C(=O)c2cnc3cc4c(cc3c2C)OCO4)cc1` the cell number change was 68.4%, the AC50 [1] was 29.1 µM [rising, single point] and the AC50 [2] was 5.8 µM [rising, single point].
In the case of `COc1ccccc1OCCNC(=O)C1CCCCC1`, the AC50 [1] is reported as 0.146 µM [falling, full curve, poor fit].
For `Cc1ccc(NCc2nnc(SCc3ccc(C#N)cc3)n2Cc2ccco2)c(C)c1`, the cell number change was 7.96% and the AC50 [2] was 4.61 µM [rising, full curve].
With `COc1ccc(OC)c(C2N(c3ccc(Cl)cc3)C(=O)C3CCCN32)c1` (centres undefined) the cell number change was -19%, the AC50 [1] was 7.31 µM [falling, single point] and the AC50 [2] was 0.116 µM [falling, full curve].
With `O=c1c2cnn(-c3ccccc3)c2ncn1CCc1ccccc1` the cell number change was 44.6%, the AC50 [1] was 11.6 µM [rising, partial curve, poor fit] and the AC50 [2] was 29.1 µM [rising, single point].
With `O=C(O)c1ccc2c(c1)C(=O)N(N1C(=O)c3ccccc3C1=O)C2=O` the cell number change was 14.1%, the AC50 [1] was 6.51 µM [falling, single point] and the AC50 [2] was 6.51 µM [falling, single point].
In the case of `O=P(O)(CCc1ccccn1)CN1CCCCC1`, the cell number change is reported as -0.759% and the AC50 [2] is reported as 6.51 µM [falling, single point].
For `O=C(CN1CCCCC1)Nc1cc(S(=O)(=O)N2CCOCC2)ccc1N1CCCC1`, the cell number change was -3.35% and the AC50 [2] was 0.00411 µM [rising, full curve, poor fit].
With `O=C(CSc1nnc(SCc2ccc(Cl)cc2)s1)N/N=C/c1ccccc1Cl` the cell number change was -5.63% and the AC50 [2] was 29.1 µM [falling, single point].
For `Nc1ccc(C(=O)Nc2ccc(Nc3ccncc3)cc2)cc1`, the cell number change was 31.3%, the AC50 [1] was 32.6 µM [rising, single point] and the AC50 [2] was 2.31 µM [rising, full curve, poor fit].
With `Cc1ccc(-c2nc(N)sc2-c2ccc(C)cc2)cc1` the cell number change was -50.1% and the AC50 [1] was 29.1 µM [falling, partial curve].
With `O=C(Cc1cccc2ccccc12)NNC(=O)c1cccs1` the cell number change was -28.5% and the AC50 [2] was 16.4 µM [falling, single point].
Compound `Cc1cccc(NC(=O)C2CCN(C(=O)c3ccccc3C)CC2)n1` has a cell number change of 4.54%.
With `CC(=O)c1c(C)[nH]c(C(=O)CSc2nnc(C3CCCCC3)n2N)c1C` the cell number change was 4.37% and the AC50 [2] was 0.146 µM [rising, full curve, poor fit].
In the case of `O=C(c1scc2c1CCCC2)N1CCCCC1`, the cell number change is reported as -12.6% and the AC50 [2] is reported as 0.13 µM [falling, full curve, poor fit].
In the case of `Cc1c([N+](=O)[O-])cc(C(=O)Oc2cccc(C(=S)N3CCOCC3)c2)cc1[N+](=O)[O-]`, the cell number change is reported as -34.7% and the AC50 [1] is reported as 29.1 µM [falling, single point].
In the case of `O=C(CCCN=C1NS(=O)(=O)c2ccccc21)OCC(=O)c1ccccc1Cl`, the cell number change is reported as -4.42% and the AC50 [1] is reported as 0.164 µM [falling, full curve, poor fit].
With `O=C(Cn1cc(C(=O)c2cccs2)c2ccccc21)NCC1CCCO1` (centres undefined) the cell number change was -11.4% and the AC50 [2] was 4.61 µM [falling, full curve].
In the case of `O=C1OC(NC(=O)c2ccccc2)C(N2CCOCC2)=C1Cl` (centres undefined), the cell number change is reported as 40.2%, the AC50 [1] is reported as 5.8 µM [falling, single point] and the AC50 [2] is reported as 10.3 µM [falling, partial curve].
`CCOc1ccccc1NC(=O)NCc1cccnc1` gave a cell number change of -25.5%.
In the case of `C=CCNc1nc(-c2sc(NC(C)=O)nc2C)cs1`, the cell number change is reported as 22.2%, the AC50 [1] is reported as 0.0651 µM [rising, full curve, poor fit] and the AC50 [2] is reported as 3.66 µM [rising, partial curve, poor fit].
With `CCC(CC)C(=O)N1CC(=O)Nc2ccc(C)cc2C1c1ccccc1` (centres undefined) the cell number change was 20.7% and the AC50 [1] was 2.59 µM [rising, full curve, poor fit].
For `Cc1ccc(CS(=O)(=O)CCC(=O)N2CCOCC2)cc1`, the cell number change was -3.84% and the AC50 [2] was 16.4 µM [rising, single point].
With `COC1=C(OC)C(=O)C(CCCCCCCCCCO)=C(C)C1=O` the AC50 [2] was 13 µM [falling, partial curve, poor fit].
With `Cc1sc2nc(CN3CCOCC3)[nH]c(=S)c2c1C` the cell number change was 45.8% and the AC50 [1] was 5.8 µM [rising, full curve].
For `Cc1ccccc1OCC(=O)NN1C(=O)C2C3C=CC(O3)C2C1=O` (centres undefined), the cell number change was 0.385%, the AC50 [1] was 1 µM [rising, partial curve] and the AC50 [2] was 0.316 µM [rising, single point].
With `C/C(=N\OCC(=O)NC(C)C)c1cccs1` the cell number change was 6.46%, the AC50 [1] was 0.461 µM [rising, single point] and the AC50 [2] was 3.26 µM [rising, single point].
With `Cc1cc(Nc2cccc([N+](=O)[O-])c2)c2cccc(C)c2n1` the cell number change was 11.7%.
For `C(#Cc1ccc(C#CCN2CCCC2)cc1)CN1CCCC1`, the AC50 [1] was 6.51 µM [falling, single point].
For `COc1cc(C#CC#CCN2CCCCC2)ccc1O`, the cell number change was -43.4%, the AC50 [1] was 23.1 µM [falling, single point] and the AC50 [2] was 20.6 µM [falling, single point].
In the case of `C1CCCN(CCCCN2CCCCCC2)CC1`, the AC50 [2] is reported as 5.17 µM [falling, full curve].
In the case of `Cn1cccc1CNC(=O)Nc1ccccc1`, the cell number change is reported as -29.4% and the AC50 [2] is reported as 0.13 µM [falling, full curve, poor fit].
With `CC(=O)c1ccc(OCc2cc(C(=O)N3CCC(Oc4ccccc4C)CC3)no2)cc1` the cell number change was 40.7%, the AC50 [1] was 35.5 µM [rising, single point] and the AC50 [2] was 20 µM [rising, partial curve, poor fit].
`CCc1cc2cc3c(cc2nc1SCC(=O)Nc1cc(OC)c(OC)cc1C(=O)O)OCO3` gave a cell number change of 29.9%.
In the case of `COc1ccc(S(=O)(=O)N2CCCCC2)cc1N(C)S(=O)(=O)c1ccccc1`, the cell number change is reported as -27.2% and the AC50 [2] is reported as 29.1 µM [falling, single point].
With `CC(c1nc2ccccc2c(=O)[nH]1)N(C)c1ccc2ccccc2c1` (centres undefined) the cell number change was -1.16% and the AC50 [2] was 18.4 µM [rising, single point].
In the case of `CC(C)(C)c1ccc(/C=N/NC(=S)NC2CCCCC2)cc1`, the cell number change is reported as -6.92% and the AC50 [2] is reported as 29.1 µM [falling, single point].
Compound `CCOC(=O)N1CCN(C(=O)c2cc3c(=O)n4cccc(C)c4nc3s2)CC1` has a cell number change of 7.26%.
For `CC(C)n1c(/C=C/[C@@H](O)C[C@@H](O)CC(=O)O)c(-c2ccc(F)cc2)c2ccccc21`, the cell number change was 17.6%.
For `Cc1ccc(S(=O)(=O)CCc2nnc(NC(=O)c3cnccn3)s2)cc1`, the AC50 [1] was 2.31 µM [rising, single point] and the AC50 [2] was 2.06 µM [rising, partial curve].
For `Cc1ccc(S(=O)(=O)NCC(=O)OCCOc2cccc(Cl)c2)cc1`, the cell number change was 14.9% and the AC50 [2] was 1.84 µM [falling, partial curve, poor fit].
In the case of `CCOC(=O)Cc1csc(N)n1`, the cell number change is reported as -109%, the AC50 [1] is reported as 5.8 µM [falling, full curve] and the AC50 [2] is reported as 23.1 µM [falling, single point].
For `COc1cc(OC)cc(C(=O)N[C@H](C(=O)Nc2ccc(F)cc2F)C(C)C)c1`, the cell number change was 27.4% and the AC50 [1] was 4.11 µM [rising, full curve, poor fit].
With `CCCC(=O)c1ccc(N2CCOCC2)c(F)c1` the cell number change was 3.86% and the AC50 [2] was 0.82 µM [rising, full curve, poor fit].
For `C=CCN(CC=C)C(=O)C1CCN(S(=O)(=O)c2ccc(-n3cnnn3)cc2)CC1`, the cell number change was 5.13%.
For `CCOc1ccc2nc(NC(=O)C3CCCN(S(=O)(=O)c4cccc5nonc45)C3)sc2c1` (centres undefined), the cell number change was -3.06% and the AC50 [2] was 0.366 µM [rising, partial curve, poor fit].
In the case of `O=C(CN1C(=O)S/C(=C\c2ccccn2)C1=O)Nc1ccccc1`, the cell number change is reported as 27.5% and the AC50 [2] is reported as 6.51 µM [rising, partial curve].
With `CCOC(=O)C(=O)Nc1cc([N+](=O)[O-])ccc1C` the cell number change was 20.9% and the AC50 [2] was 20.6 µM [rising, partial curve, poor fit].
For `CCc1cc(C(c2ccc(OC)c(OC)c2)N2CCOCC2)c(NC(=O)c2ccccc2)s1` (centres undefined), the cell number change was -28% and the AC50 [2] was 29.1 µM [falling, single point].
In the case of `COCCCNC(=O)Nc1ccc2c(c1)N(C)C(=O)CS2`, the cell number change is reported as 58.9%, the AC50 [1] is reported as 18.4 µM [rising, partial curve] and the AC50 [2] is reported as 23.1 µM [rising, partial curve].
For `Cc1nnc(-c2cnn(C)c2N)n1CCCN1CCOCC1`, the cell number change was -2.87% and the AC50 [2] was 0.82 µM [falling, full curve, poor fit].
